System: MV4-11 cells expressing human FLT3-ITD
Experiment: Cell viability assay: FLT3-ITD-positive cells
Type: cell-based
Settings: 72-hour incubation, read-out: MV-4-11 cell viability IC50
Protocol: Compounds of the invention were tested for cell viability effect on MV4-11 cells. For cell viability assay, MV4-11 cells expressing human FLT3-ITD were obtained from the American Type Culture Collection (ATCC, Manassas, Va.). This cell line was maintained with an Roswell Park Memorial Institute (RPMI) medium (HyClone™) containing 10 bovine calf serum (BCS; Hyclone™) supplemented iron. […] CellTiter Aqueous assay (Promega™) was also performed in parallel as an orthogonal assay. IC50 values were calculated using nonlinear regression and defined as the concentration needed for a 50 reduction in luminescence or absorbance treated versus untreated control cells (Prism™ Software).

- IC50: 11.7 nM
Structure (SMILES): CO[C@@H]1[C@H](N(C)C(=O)c2ccccc2)C[C@H]2O[C@]1(C)n1c3ccccc3c3c4c(c5c6ccccc6n2c5c31)C(=O)NC4 [PKC-412, reference compound]
